{"source": "PubChem BioAssay AID328", "about": "(DTP/NCI, 2004)", "system": "BDF1 mice, P388 leukemia ip, median survival T/C", "test": "NCI In Vivo Anticancer Drug Screen. Data for tumor model P388 Leukemia (intraperitoneal) in B6D2F1 (BDF1) mice", "conditions": "T/C endpoint: median survival time, higher T/C = longer survival", "method_in_brief": "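Reported as T/C, where T is the survival measurement in dosed animals and C the same measurement in vehicle controls.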", "key": {"[1]": {"conditions": "dose: 100.0 mg/kg/injection, schedule: Q04DX003 (ip), vehicle: saline with Tween-80"}, "[2]": {"conditions": "dose: 200.0 mg/kg/injection, schedule: Q04DX003 (ip), vehicle: saline with Tween-80"}, "[3]": {"conditions": "dose: 50.0 mg/kg/injection, schedule: Q01DX009 (ip), vehicle: saline with Tween-80"}, "[4]": {"conditions": "dose: 100.0 mg/kg/injection, schedule: Q01DX009 (ip), vehicle: saline with Tween-80"}, "[5]": {"conditions": "dose: 200.0 mg/kg/injection, schedule: Q01DX009 (ip), vehicle: saline with Tween-80"}}, "note": "The list shows only some results of the screen, not a fair sample: it covers a few groups of compounds. Other doses and runs of a compound may be missing. T/C gives the treated animals as a percentage of the vehicle group. Some entries give survivors of the animals treated and no T/C: the source holds a T/C of zero for them, seemingly a mark for toxic or unscored doses. Some doses without a T/C left all or most animals alive at the check, yet need not have been tolerated: the source hardly ever lists a survival T/C far under the control, and the zero likely stands for such cases as well. Survivors were counted at the toxicity check, usually on the fifth day, unless a day is given; later deaths do not show. Schedule codes are those of the source, read here as Q, the interval in days (D) or hours (H), X, the number of doses. For survival time, this PubChem deposit counts one and a half times the control or more as active, and values a quarter to a half above the control carry no call in these data; other NCI protocols may use other cut-offs. Some T/C values carry the count of animals alive at the toxicity check (mostly the fifth day); where neither a count nor a note follows, no animal had died by that day. Some entries were tested several times; their values stand side by side, smallest first."}
{"compound": "CCCCOP(OCCCC)OCCCC", "values": [{"measurement": "T/C", "setting": "[1]", "result": "104 % of control"}, {"measurement": "T/C", "setting": "[2]", "result": "100 % of control"}, {"measurement": "T/C", "setting": "dose: 400.0 mg/kg/injection, schedule: Q04DX003 (ip), vehicle: saline with Tween-80", "result": "100 % of control"}]}
{"compound": "NC(=O)c1cn[nH]c1/N=N/N(CCCl)CCCl", "values": [{"measurement": "T/C", "setting": "[3]", "result": "104 % of control"}, {"measurement": "T/C", "setting": "[4]", "result": "120 % of control"}, {"measurement": "survivor count", "setting": "[5]", "result": "3 of 6"}]}
{"compound": "CCOP(=S)(CC)Oc1cnn(C)c(=O)c1SCC", "note": "(stereo not drawn)", "values": [{"measurement": "survivor count", "setting": "dose: 50.0 mg/kg/injection, schedule: Q01DX005 (ip), vehicle: saline with Tween-80", "result": "0 of 6"}, {"measurement": "survivor count", "setting": "dose: 100.0 mg/kg/injection, schedule: Q01DX005 (ip), vehicle: saline with Tween-80", "result": "0 of 6"}, {"measurement": "survivor count", "setting": "dose: 200.0 mg/kg/injection, schedule: Q01DX005 (ip), vehicle: saline with Tween-80", "result": "0 of 6"}]}
{"compound": "Nc1ncnc2sc(SCCCl)nc12", "values": [{"measurement": "T/C", "setting": "dose: 50.0 mg/kg/injection, schedule: Q04DX003 (ip), vehicle: saline with Tween-80", "result": "104 % of control"}, {"measurement": "T/C", "setting": "[1]", "result": "104 % of control"}, {"measurement": "survivor count", "setting": "[2]", "result": "6 of 6"}]}
{"compound": "O=C(O)COc1cccc(CN(CCCl)CCCl)c1", "values": [{"measurement": "T/C", "setting": "dose: 0.4 mg/kg/injection, schedule: Q04DX003 (ip), vehicle: saline", "result": "130 % of control"}, {"measurement": "T/C", "setting": "dose: 0.6 mg/kg/injection, schedule: Q04DX003 (ip), vehicle: saline", "result": "170 % of control"}, {"measurement": "T/C", "setting": "dose: 0.9 mg/kg/injection, schedule: Q04DX003 (ip), vehicle: saline", "result": "180 % of control"}, {"measurement": "T/C", "setting": "dose: 625.0 micrograms/kg/injection, schedule: Q04DX003 (ip), vehicle: saline with Tween-80", "result": "159 % of control"}, {"measurement": "T/C", "setting": "dose: 1250.0 micrograms/kg/injection, schedule: Q04DX003 (ip), vehicle: saline with Tween-80", "result": "118 % of control"}, {"measurement": "survivor count", "setting": "dose: 2500.0 micrograms/kg/injection, schedule: Q04DX003 (ip), vehicle: saline with Tween-80", "result": "5 of 6"}]}
{"compound": "O=C(O)c1cc([N+](=O)[O-])cc([N+](=O)[O-])c1-c1c(C(=O)O)cc([N+](=O)[O-])cc1[N+](=O)[O-]", "values": [{"measurement": "T/C", "setting": "dose: 100.0 mg/kg/injection, schedule: Q04DX002 (ip), vehicle: saline + alcohol", "result": "93 % of control"}, {"measurement": "T/C", "setting": "dose: 200.0 mg/kg/injection, schedule: Q04DX002 (ip), vehicle: saline + alcohol", "result": "95 % of control"}, {"measurement": "T/C", "setting": "dose: 400.0 mg/kg/injection, schedule: Q04DX002 (ip), vehicle: saline + alcohol", "result": "93 % of control"}]}
{"compound": "CC(C)OP(C)(O)=S", "note": "(stereo not drawn)", "values": [{"measurement": "T/C", "setting": "dose: 12.5 mg/kg/injection, schedule: Q01DX005 (ip), vehicle: saline", "result": "95 % of control"}, {"measurement": "T/C", "setting": "dose: 25.0 mg/kg/injection, schedule: Q01DX005 (ip), vehicle: saline", "result": "97 % of control"}, {"measurement": "T/C", "setting": "dose: 50.0 mg/kg/injection, schedule: Q01DX005 (ip), vehicle: saline", "result": "103 % of control"}]}
{"compound": "Cc1ccc(S(=O)(=O)CN(CCCl)CCCl)cc1", "values": [{"measurement": "T/C", "setting": "dose: 25.0 mg/kg/injection, schedule: Q01DX009 (ip), vehicle: saline with Tween-80", "result": "111 % of control"}, {"measurement": "T/C", "setting": "[3]", "result": "155 and 170 % of control"}, {"measurement": "T/C", "setting": "[4]", "result": "193 and 207 % of control"}, {"measurement": "T/C", "setting": "[5]", "result": "108 % of control"}, {"measurement": "survivor count", "setting": "[5]", "result": "5 of 6"}]}
{"compound": "N/C(=N\\[N+](=O)[O-])N(CCCl)N=O", "values": [{"measurement": "T/C", "setting": "dose: 26.0 mg/kg/injection, schedule: Q01DX009 (ip), vehicle: saline", "result": "107 and 130 % of control"}, {"measurement": "T/C", "setting": "dose: 40.0 mg/kg/injection, schedule: Q01DX009 (ip), vehicle: saline", "result": "107 and 135 % of control"}, {"measurement": "T/C", "setting": "dose: 60.0 mg/kg/injection, schedule: Q01DX009 (ip), vehicle: saline", "result": "121 and 135 % of control"}, {"measurement": "T/C", "setting": "dose: 90.0 mg/kg/injection, schedule: Q01DX009 (ip), vehicle: saline", "result": "160 % of control"}, {"measurement": "T/C", "setting": "dose: 135.0 mg/kg/injection, schedule: Q01DX009 (ip), vehicle: saline", "result": "160 % of control"}, {"measurement": "T/C", "setting": "dose: 200.0 mg/kg/injection, schedule: Q01DX009 (ip), vehicle: Klucel (hydroxypropylcellulose) (HPC)", "result": "135 % of control"}, {"measurement": "T/C", "setting": "dose: 305.0 mg/kg/injection, schedule: Q01DX009 (ip), vehicle: Klucel (hydroxypropylcellulose) (HPC)", "result": "145 % of control"}]}
{"compound": "C1CCC(NC2CCCCC2)CC1.CC(C)(Oc1ccc(N(CCCl)CCCl)cc1)C(=O)O", "values": [{"measurement": "T/C", "setting": "dose: 0.48 mg/kg/injection, schedule: Q04DX003 (ip), vehicle: Klucel (hydroxypropylcellulose) (HPC)", "result": "104 % of control"}, {"measurement": "T/C", "setting": "dose: 0.72 mg/kg/injection, schedule: Q04DX003 (ip), vehicle: Klucel (hydroxypropylcellulose) (HPC)", "result": "125 % of control"}, {"measurement": "T/C", "setting": "dose: 1.1 mg/kg/injection, schedule: Q04DX003 (ip), vehicle: Klucel (hydroxypropylcellulose) (HPC)", "result": "150 % of control"}, {"measurement": "T/C", "setting": "dose: 1.7 mg/kg/injection, schedule: Q04DX003 (ip), vehicle: Klucel (hydroxypropylcellulose) (HPC)", "result": "155 % of control"}, {"measurement": "T/C", "setting": "dose: 2.6 mg/kg/injection, schedule: Q04DX003 (ip), vehicle: Klucel (hydroxypropylcellulose) (HPC)", "result": "136 % of control"}, {"measurement": "T/C", "setting": "dose: 4.0 mg/kg/injection, schedule: Q04DX003 (ip), vehicle: Klucel (hydroxypropylcellulose) (HPC)", "result": "154 % of control"}, {"measurement": "T/C", "setting": "dose: 6.1 mg/kg/injection, schedule: Q04DX003 (ip), vehicle: Klucel (hydroxypropylcellulose) (HPC)", "result": "129 % of control"}, {"measurement": "T/C", "setting": "dose: 9.2 mg/kg/injection, schedule: Q04DX003 (ip), vehicle: Klucel (hydroxypropylcellulose) (HPC)", "result": "116 % of control"}, {"measurement": "T/C", "setting": "dose: 12.5 mg/kg/injection, schedule: Q01DX009 (ip), vehicle: saline", "result": "220 % of control"}, {"measurement": "T/C", "setting": "dose: 25.0 mg/kg/injection, schedule: Q01DX009 (ip), vehicle: saline", "result": "245 % of control"}, {"measurement": "T/C", "setting": "dose: 33.0 mg/kg/injection, schedule: Q04DX003 (ip), vehicle: Klucel (hydroxypropylcellulose) (HPC)", "result": "272 and 290 % of control"}, {"measurement": "T/C", "setting": "dose: 50.0 mg/kg/injection, schedule: Q01DX009 (ip), vehicle: saline", "result": "250 % of control"}, {"measurement": "T/C", "setting": "dose: 50.0 mg/kg/injection, schedule: Q04DX003 (ip), vehicle: Klucel (hydroxypropylcellulose) (HPC)", "result": "205, 272, 300 % of control"}, {"measurement": "T/C", "setting": "dose: 75.0 mg/kg/injection, schedule: Q04DX003 (ip), vehicle: Klucel (hydroxypropylcellulose) (HPC)", "result": "163 [5 of 6 alive] and 280 % of control"}, {"measurement": "survivor count", "setting": "dose: 100.0 mg/kg/injection, schedule: Q04DX003 (ip), vehicle: Klucel (hydroxypropylcellulose) (HPC)", "result": "6 of 6"}, {"measurement": "survivor count", "setting": "dose: 200.0 mg/kg/injection, schedule: Q04DX003 (ip), vehicle: Klucel (hydroxypropylcellulose) (HPC)", "result": "3 of 6"}]}
{"compound": "O=C(O)/C=C\\c1cccc(N(CCCl)CCCl)c1", "values": [{"measurement": "survivor count", "setting": "[3]", "result": "3 of 6"}, {"measurement": "survivor count", "setting": "[4]", "result": "3 of 6"}, {"measurement": "T/C", "setting": "[1]", "result": "125 % of control"}, {"measurement": "T/C", "setting": "dose: 132.0 mg/kg/injection, schedule: Q04DX003 (ip), vehicle: saline with Tween-80", "result": "166 % of control"}, {"measurement": "T/C", "setting": "dose: 150.0 mg/kg/injection, schedule: Q04DX003 (ip), vehicle: saline with Tween-80", "result": "145 % of control"}, {"measurement": "survivor count", "setting": "[5]", "result": "0 of 6"}]}
